These are yes or no findings as the source states them, for the method shown. In cells and extracts the contact can be indirect. A result given as binding can be weak or reduced; the word gives no strength.
How the values were obtained:
Test in all cases: pull-down; S-tagged SS2 immobilised on S-protein agarose beads as bait, incubated 40 min at room temperature with plastid stroma (~1 mg/ml) with 1 mM ATP, DTT, CaCl2, protease inhibitors; washed with 20 mM Tris-HCl pH 7.5, 150 mM NaCl, 0.1% Triton-X100; immunoblot with SBE antibodies; the paper calls it co-immunoprecipitation; only the target purified
[1] = biological target: recombinant S-tagged Arabidopsis SS2 N-terminal truncation TRU1 (Arabidopsis thaliana) (UniProt Q9MAC8)
[2] = biological target: recombinant S-tagged Arabidopsis SS2 N-terminal truncation TRU4 (Arabidopsis thaliana) (UniProt Q9MAC8)
[3] = biological target: recombinant S-tagged Arabidopsis SS2 N-terminal truncation TRU5 (Arabidopsis thaliana) (UniProt Q9MAC8)

Amino acid sequences for entries named in this document (tags omitted). A change or cut given only in a name is not applied to a line headed by its entry.
UniProt Q9MAC8: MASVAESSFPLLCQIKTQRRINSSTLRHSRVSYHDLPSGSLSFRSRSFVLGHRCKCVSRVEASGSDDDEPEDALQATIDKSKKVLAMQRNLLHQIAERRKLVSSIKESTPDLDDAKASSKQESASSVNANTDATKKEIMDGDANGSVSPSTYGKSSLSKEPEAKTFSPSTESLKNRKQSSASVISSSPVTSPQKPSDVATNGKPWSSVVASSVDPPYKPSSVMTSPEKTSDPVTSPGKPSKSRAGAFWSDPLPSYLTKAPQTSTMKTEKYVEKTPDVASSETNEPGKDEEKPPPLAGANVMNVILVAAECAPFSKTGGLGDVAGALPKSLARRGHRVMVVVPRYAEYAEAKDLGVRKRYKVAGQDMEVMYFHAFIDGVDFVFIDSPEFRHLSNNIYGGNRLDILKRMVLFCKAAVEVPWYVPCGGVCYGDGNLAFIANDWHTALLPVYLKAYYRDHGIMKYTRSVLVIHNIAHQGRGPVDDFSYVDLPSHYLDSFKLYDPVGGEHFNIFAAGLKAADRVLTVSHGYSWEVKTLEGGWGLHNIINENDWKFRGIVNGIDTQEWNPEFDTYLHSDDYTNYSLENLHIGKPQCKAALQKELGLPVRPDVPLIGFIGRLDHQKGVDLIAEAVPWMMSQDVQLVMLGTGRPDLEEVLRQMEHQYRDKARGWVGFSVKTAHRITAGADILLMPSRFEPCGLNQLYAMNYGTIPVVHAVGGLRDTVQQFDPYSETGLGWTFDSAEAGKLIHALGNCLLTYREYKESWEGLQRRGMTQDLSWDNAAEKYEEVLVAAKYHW

Measured: binding

B1: maize starch branching enzyme IIb (enzyme, UniProt Q08047 58-799)
chain: RKAVMVPEGENDGLASRADSAQFQSDELEVPDISEETTCGAGVADAQALNRVRVVPPPSDGQKIFQIDPMLQGYKYHLEYRYSLYRRIRSDIDEHEGGLEAFSRSYEKFGFNASAEGITYREWAPGAFSAALVGDVNNWDPNADRMSKNEFGVWEIFLPNNADGTSPIPHGSRVKVRMDTPSGIKDSIPAWIKYSVQAPGEIPYDGIYYDPPEEVKYVFRHAQPKRPKSLRIYETHVGMSSPEPKINTYVNFRDEVLPRIKKLGYNAVQIMAIQEHSYYGSFGYHVTNFFAPSSRFGTPEDLKSLIDRAHELGLLVLMDVVHSHASSNTLDGLNGFDGTDTHYFHSGPRGHHWMWDSRLFNYGNWEVLRFLLSNARWWLEEYKFDGFRFDGVTSMMYTHHGLQVTFTGNFNEYFGFATDVDAVVYLMLVNDLIHGLYPEAVTIGEDVSGMPTFALPVHDGGVGFDYRMHMAVADKWIDLLKQSDETWKMGDIVHTLTNRRWLEKCVTYAESHDQALVGDKTIAFWLMDKDMYDFMALDRPSTPTIDRGIALHKMIRLITMGLGGEGYLNFMGNEFGHPEWIDFPRGPQRLPSGKFIPGNNNSYDKCRRRFDLGDADYLRYHGMQEFDQAMQHLEQKYEFMTSDHQYISRKHEEDKVIVFEKGDLVFVFNFHCNNSYFDYRIGCRKPGVYKVVLDSDAGLFGGFSRIHHAAEHFTADCSHDNRPYSFSVYTPSRTCVVYAPVE
binds: all assays above
